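Whole-cell assay for inhibitors of Mycobacterium tuberculosis growth, labelled Cornell in the record; the read-out is not stated. The concentration is filed as 10 mM, unlikely as a test dose, so the dose is not known. The record gives no direction; compounds strong in two other growth screens of this library score well above the rest, so higher reads as stronger inhibition. About 53,000 compounds were tested under these conditions; 1.7% (about 900) showed 50% or more at least once.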

Each number is a percent effect as filed.
The controls that fix the scale are not given in the record; negative values are as filed.
Compounds were drawn at random from those tested, without regard to their results.

* Fc1ccc(Cn2ncc3c2CN(c2noc(C4CC4)n2)C3)cc1 | 23.1%
* CCS(=O)(=O)N1CCN(C(C)c2ncc(-c3ccccc3)o2)CC1 (stereo unspecified) | 14.73%
* CC(C)NC(=O)N1CCC2(CC(C(=O)NCc3cccnc3)=NO2)C1 (stereo unspecified) | 9.614%
* COc1cccc(C(=O)Oc2cc(=O)n3cccc(C)c3n2)c1 | 35.2%
* CC(C)(C)c1n[nH]c(C2CN(C(=O)C3=COCCC3)CCO2)n1 (stereo unspecified) | -22.57%
* Cl.Cl.Clc1cccc(C[C@@H]2NCCC[C@@H]2Nc2ccccc2)c1 | 55.37%
* CC(=O)N1CCC(C(=O)Nc2nc(C3CC3)cs2)CC1 | 6.751%
* Cc1oc(-c2ccco2)nc1CN1CCc2cnc(C(C)C)nc2C1 | 14.66%
* NC(=O)CCSCc1ccc(Br)c(F)c1 | -1.046%
* CC(C)S(=O)(=O)NCC1CCCN(C(=O)c2ccc(F)cc2)C1 (stereo unspecified) | -10.47%
* CN(Cc1cn2c(n1)CN(Cc1nccs1)CC2)Cc1ccco1.O=C(O)C(F)(F)F.O=C(O)C(F)(F)F | -6.077%
* CCCC(C)(O)c1cc(C(N)=O)no1 (stereo unspecified) | 45.9%
* Cn1ccc2ccnc(CC3CN(C(=O)C4CCC(F)(F)CC4)C3)c21 | 6.377%
* CS(=O)(=O)c1cn[nH]c1C1CCCN(C(=O)Cn2cccn2)C1 (stereo unspecified) | -4.367%
* Nc1ccnc(CNc2cc(F)ccc2OCC2CCCO2)n1 (stereo unspecified) | 42.31%
* C1=CCN(c2nc(CC3CC3)nc3c2CCN(C2CCOCC2)CC3)C1 | 21.21%
* O=C(CN1CCS(=O)(=O)CC1)NC1CCCc2ccccc21 (stereo unspecified) | 6.082%
* NC(=O)NC(=O)CCn1ccc(-c2ccc(F)cc2)n1 | 23.23%
* CCCc1cc(=O)[nH]c2nnc(SCC(=O)OCC)n12 | 15.51%
* CCN(CC)C(CNS(=O)(=O)NCc1ccccc1)c1ccco1 (stereo unspecified) | -0.0648%
* Cc1cc(C)n(C2CCCN(C(=O)c3c[nH]c(=O)c(Cl)c3)C2)n1 (stereo unspecified) | -8.802%
* O=C(NCCc1ccc(I)s1)N1CCC1 | 9.216%
* Cc1nnc2n1CCN(CCS(=O)(=O)c1ccccc1)C2 | 23.13%
* CCc1n[nH]c(C2CN(Cc3nc(C4CC4)no3)CCO2)n1 (stereo unspecified) | -39.8%
* COc1ccc2cc(NC(=O)CCCNc3ncccn3)cnc2c1 | 20.51%
* CNC(=O)c1cn[nH]c1C1CCN(Cc2cccc(C)c2OC)C1 (stereo unspecified) | -22.84%
* [H][C@]12CCN(C(=O)c3ccco3)[C@@]1([H])CC[C@@H](COCC1CCOCC1)O2 | -33.29%
* CCOC(=O)CSc1nnc([C@@H](N)C(C)C)o1.Cl | 36.6%
* COCC(=O)N1Cc2cn(C)nc2C(COc2cccnc2)C1 (stereo unspecified) | -2.627%
* O=C(C1CCCN(CCc2ccc3c(c2)CCO3)C1)N1CCCC1 (stereo unspecified) | -18.7%
* Cc1ccc(C#N)c(N2CCC3(CCC(=O)N(CC(N)=O)C3)CC2)n1 | -37.98%
* Cc1ccc(-n2nnc(C(=O)NC(C)C)c2C2CC2)cc1 | 10.9%
* CN(C)S(=O)(=O)N1CCN(c2cc(-n3cccc3)ncn2)CC1 | 44.88%
* [H][C@]12CC[C@]([H])(CN(C(=O)c3c[nH]c(=O)c(Cl)c3)C1)N(CC=C(C)C)C2 | 26.37%
* CC1=C(C(=O)N(C)Cc2noc3c2CCCC3)C(C)NC(=O)N1 (stereo unspecified) | 10.02%
* Cc1cc(NC(=O)CN2CCc3nn(C)c(=O)cc3C2)no1 | -40.01%

Source: ChEMBL document CHEMBL3988442, “University of Dundee, Small-Polar-MMV Screening Library” (2021).